PubChem BioAssay AID504786 | Drosophila RNAi Screening Center – 2011
Assay: 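Knock-downs reducing HIF reporter induction by the iron chelator DFO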 (primary screen). System: Drosophila S2 cells with a stable HIF luciferase reporter. Reagents: long dsRNA against Drosophila genes, about 0.2 µg dsRNA per well of a 384-well plate. Time to read-out: three days of knock-down, then 20 h of DFO before reading. Treatment: desferrioxamine (DFO) at 100 µM, an iron chelator that mimics hypoxia, for 20 h. Detection: 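HIF reporter luminescence in cells given 100 µM DFO for 20 h, using the mouse ldh-a hypoxia-response element, scored as per-plate z-scores; higher means greater loss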. Direction: z-score: higher = stronger loss of HIF reporter signal.
The screen tested about 21,000 reagents; this is a random part of those with a known target gene and a result. 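Primary screen; positive scores mean lost reporter signal, so the sign may be inverted from the usual convention.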 A plus sign joins genes that one reagent is predicted to hit. Further read-outs or replicates are left out here.

MED26 (GeneID 43816) [DRSC17126]
- z-score, replicate 1: -0.4

MED26 (GeneID 43816) [DRSC17147]
- z-score, replicate 1: -0.4

MED26 (GeneID 43816) [DRSC17148]
- z-score, replicate 1: -0.4

Taf1 (GeneID 40813) [DRSC12607]
- z-score, replicate 1: 1.5

Cep164 (GeneID 32563) [DRSC20163]
- z-score, replicate 1: -0.3

LysD + LysB + LysC (retired record) [DRSC21249]
- z-score, replicate 1: -0.2

ea (GeneID 41858) [DRSC16939]
- z-score, replicate 1: -0.4

CG2256 (GeneID 31727) [DRSC18220]
- z-score, replicate 1: -0.3

CG8312 (GeneID 41163) [DRSC16406]
- z-score, replicate 1: -0.2

Cka (GeneID 34096) [DRSC03476]
- z-score, replicate 1: -0.3

Pex10 (GeneID 38182) [DRSC08599]
- z-score, replicate 1: -0.3

CG9467 (GeneID 41207) [DRSC16498]
- z-score, replicate 1: -0.3

Elp1 (GeneID 41399) [DRSC14250]
- z-score, replicate 1: -0.3

mRpL49 (GeneID 32242) [DRSC19908]
- z-score, replicate 1: 1.1

Nph (GeneID 43559) [DRSC16342]
- z-score, replicate 1: -0.5

CG18063 (GeneID 34943) [DRSC01968]
- z-score, replicate 1: -0.3

CG17349 (GeneID 35209) [DRSC02610]
- z-score, replicate 1: -0.2

CG14238 (GeneID 43195) [DRSC14732]
- z-score, replicate 1: 0.1

CG4835 (GeneID 38619) [DRSC10452]
- z-score, replicate 1: 1.2

CG32243 (GeneID 317935) [DRSC08105]
- z-score, replicate 1: 0

Fbl6 (GeneID 36201) [DRSC06335]
- z-score, replicate 1: -0.4

Keap1 (GeneID 42062) [DRSC15528]
- z-score, replicate 1: -0.1

Rpe (GeneID 35692) [DRSC06407]
- z-score, replicate 1: -0.3

Zw (GeneID 32974) [DRSC20303]
- z-score, replicate 1: -0.1

CG42820 + CG42819 [DRSC02264]
- z-score, replicate 1: -0.4

CG42820 + CG42819 [DRSC02265]
- z-score, replicate 1: -0.2

Ac78C (GeneID 40333) [DRSC11467]
- z-score, replicate 1: -0.2

Ac78C (GeneID 40333) [DRSC11602]
- z-score, replicate 1: -0.3

Ac78C (GeneID 40333) [DRSC11619]
- z-score, replicate 1: -0.1

CG12942 (GeneID 36158) [DRSC06253]
- z-score, replicate 1: -0.2

Etl1 (GeneID 34311) [DRSC02911]
- z-score, replicate 1: -0.2

Cep97 (GeneID 33610) [DRSC00637]
- z-score, replicate 1: -0.4

CG3999 (GeneID 41253) [DRSC15534]
- z-score, replicate 1: -0.3

eag (GeneID 32428) [DRSC19067]
- z-score, replicate 1: -0.3

eag (GeneID 32428) [DRSC20328]
- z-score, replicate 1: -0.3

dnk (GeneID 42273) [DRSC16933]
- z-score, replicate 1: -0.1

Nha2 (GeneID 42710) [DRSC14689]
- z-score, replicate 1: -0.4

Nha2 (GeneID 42710) [DRSC15619]
- z-score, replicate 1: 0.8

Nha2 (GeneID 42710) [DRSC15623]
- z-score, replicate 1: -0.2

BORCS7 + CG13430 [DRSC06392]
- z-score, replicate 1: -0.1

BORCS7 + CG13430 [DRSC06707]
- z-score, replicate 1: -0.3

CG8837 (GeneID 33545) [DRSC00711]
- z-score, replicate 1: -0.1

Klp67A (GeneID 39068) [DRSC11205]
- z-score, replicate 1: -0.2

Mad1 (GeneID 35954) [DRSC07561]
- z-score, replicate 1: -0.4

upSET (GeneID 39551) [DRSC11051]
- z-score, replicate 1: 2.7

CG32053 (GeneID 39178) [DRSC10683]
- z-score, replicate 1: 0

Kpc1 (GeneID 41826) [DRSC16107]
- z-score, replicate 1: -0.4

CG15767 (GeneID 31508) [DRSC18073]
- z-score, replicate 1: -0.3

Tailor (GeneID 40847) [DRSC12526]
- z-score, replicate 1: 0.1

Oseg4 (GeneID 38219) [DRSC08548]
- z-score, replicate 1: -0.1

CG31128 (GeneID 318601) [DRSC13675]
- z-score, replicate 1: -0.3

Look-ups from the list:
Under “z-score, replicate 1”, Ac78C (GeneID 40333) [DRSC11467] has -0.2
Entry of Tailor (GeneID 40847) [DRSC12526] in “z-score, replicate 1”: 0.1
Result for Elp1 (GeneID 41399) [DRSC14250] in “z-score, replicate 1”: -0.3
MED26 (GeneID 43816) [DRSC17148], z-score, replicate 1 → -0.4
Under “z-score, replicate 1”, CG17349 (GeneID 35209) [DRSC02610] is entered as -0.2
CG32243 (GeneID 317935) [DRSC08105], z-score, replicate 1 = 0
